Literature values in patent US20190062684A1, “Microfluidic System for Reproducing Functional Units of Tissues and Organs In Vitro” (NORTIS, INC., priority 2012, published 2019).
At least one compound was matched to its structure with a doubt left.

System: rat brain endothelial cells—astrocytes co-cultures
Details: literature comparison value; cited from earlier work

O=C(O)c1ccccc1-c1c2cc(F)c(=O)cc-2oc2cc(O)c(F)cc12 [Oregon Green]
permeability reported for rat brain endothelial cells—astrocytes co-cultures: 11 ×10⁻⁶ cm/s
